Test results: article PMC3312915

T1: ER degradation-enhancing, mannosidase-like protein 1 (EDEM1), endogenous (human (endogenous in HepG2.2.2.15)) (UniProt Q92611)
T1 sequence: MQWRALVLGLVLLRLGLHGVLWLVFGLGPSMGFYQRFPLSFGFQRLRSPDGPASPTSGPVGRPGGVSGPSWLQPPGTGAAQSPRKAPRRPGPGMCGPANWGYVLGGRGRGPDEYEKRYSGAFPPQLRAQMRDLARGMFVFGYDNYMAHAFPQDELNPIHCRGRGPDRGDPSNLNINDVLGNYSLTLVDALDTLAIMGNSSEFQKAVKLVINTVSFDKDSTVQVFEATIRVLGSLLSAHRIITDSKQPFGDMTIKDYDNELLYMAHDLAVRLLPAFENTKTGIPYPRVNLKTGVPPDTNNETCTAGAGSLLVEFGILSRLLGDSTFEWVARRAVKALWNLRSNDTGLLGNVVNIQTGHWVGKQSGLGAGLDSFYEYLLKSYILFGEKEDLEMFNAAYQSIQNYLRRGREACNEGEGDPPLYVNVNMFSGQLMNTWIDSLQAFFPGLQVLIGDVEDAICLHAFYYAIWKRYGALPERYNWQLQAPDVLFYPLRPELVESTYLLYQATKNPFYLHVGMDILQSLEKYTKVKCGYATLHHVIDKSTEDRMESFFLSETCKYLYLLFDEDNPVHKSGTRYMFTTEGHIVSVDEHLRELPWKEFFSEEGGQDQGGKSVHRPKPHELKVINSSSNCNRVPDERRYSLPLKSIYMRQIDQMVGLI

B1: ER degradation-enhancing, mannosidase-like protein 1 (EDEM1), endogenous (protein, UniProt Q92611 1-657)
chain: MQWRALVLGLVLLRLGLHGVLWLVFGLGPSMGFYQRFPLSFGFQRLRSPDGPASPTSGPVGRPGGVSGPSWLQPPGTGAAQSPRKAPRRPGPGMCGPANWGYVLGGRGRGPDEYEKRYSGAFPPQLRAQMRDLARGMFVFGYDNYMAHAFPQDELNPIHCRGRGPDRGDPSNLNINDVLGNYSLTLVDALDTLAIMGNSSEFQKAVKLVINTVSFDKDSTVQVFEATIRVLGSLLSAHRIITDSKQPFGDMTIKDYDNELLYMAHDLAVRLLPAFENTKTGIPYPRVNLKTGVPPDTNNETCTAGAGSLLVEFGILSRLLGDSTFEWVARRAVKALWNLRSNDTGLLGNVVNIQTGHWVGKQSGLGAGLDSFYEYLLKSYILFGEKEDLEMFNAAYQSIQNYLRRGREACNEGEGDPPLYVNVNMFSGQLMNTWIDSLQAFFPGLQVLIGDVEDAICLHAFYYAIWKRYGALPERYNWQLQAPDVLFYPLRPELVESTYLLYQATKNPFYLHVGMDILQSLEKYTKVKCGYATLHHVIDKSTEDRMESFFLSETCKYLYLLFDEDNPVHKSGTRYMFTTEGHIVSVDEHLRELPWKEFFSEEGGQDQGGKSVHRPKPHELKVINSSSNCNRVPDERRYSLPLKSIYMRQIDQMVGLI

How the values were obtained:
Experiment in all cases: co-IP; HepG2.2.2.15 cells pulse-labelled 30 min with 35S-Met/Cys, lysed in 2% CHAPS, 50 mM HEPES pH 7.5, 200 mM NaCl, 2 mM EDTA; immunoprecipitated with anti-EDEM1 or anti-S Abs overnight at 4°C, protein A-Sepharose; SDS-PAGE and autoradiography; controls HepG2 cells and beads only
[1] = target: T1, ER degradation-enhancing, mannosidase-like protein 1 (EDEM1), endogenous (human (endogenous in HepG2.2.2.15))
[2] = target: HBV large (L) envelope protein (Hepatitis B virus (genome integrated in HepG2.2.2.15))
[3] = target: HBV small (S) envelope protein (Hepatitis B virus (genome integrated in HepG2.2.2.15))

| Molecule | binding [1] | binding [2] | binding [3] |
| --- | --- | --- | --- |
| HBV large (L) envelope protein | binds |  |  |
| HBV small (S) envelope protein | binds |  |  |
| B1 |  | binds | binds |

No constants are given. Whether binding was seen depends on the method and setting. Binding seen in cells or lysates may run through a third protein. A result given as binding can be weak or reduced; the word gives no strength.
